Measured values as given in PubChem BioAssay AID624308 (National Center for Advancing Translational Sciences (NCATS), 2012).
Inconclusive means that the source gave no clear call. Such entries were picked first, then a sample of the others. Where the call is inconclusive, the potency comes from a doubtful curve fit. Activity calls are given as the source filed them. Calls come from the whole dose curve; as a rule, active = well fitted inhibition curve with a large enough effect; inconclusive = small, poorly fitted or top-dose-only effect; inactive = flat fitted curve, though single readings scatter.

Chains of the proteins cited; added tags and fusions are not shown.
UniProt Q13526, whole entry, looked up: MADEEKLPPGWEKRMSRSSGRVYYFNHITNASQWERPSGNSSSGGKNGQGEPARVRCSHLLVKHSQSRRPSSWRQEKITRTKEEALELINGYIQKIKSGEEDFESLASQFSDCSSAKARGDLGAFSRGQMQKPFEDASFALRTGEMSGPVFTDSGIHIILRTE

target: Peptidyl-prolyl cis-trans isomerase NIMA-interacting 1 (Homo sapiens) (UniProt Q13526); test: qHTS Assay to Find Inhibitors of Pin1: Hit Validation; conditions: Pin1 FP peptide displacement, HiFluor488 probe; series mostly up to 57.5 µM
Source text: The unique chemical properties of Pro allow for the adoption of two completely distinct amide bond conformations (cis and trans). Peptidyl-prolyl cis/trans isomerases (PPIases) are evolutionary conserved enzymes that catalyze cis/trans isomerization of peptidyl-prolyl peptide bonds. Distinct from all other PPIases such as cyclophilins and FK506-binding proteins (FKBPs), Pin1 binds a subset of phos.Ser/Thr-Pro-containing proteins using its protein-targeting WW domain and isomerizes only specific phos.Ser/Thr-Pro bonds, which cannot be effectively catalyzed by other known PPIases. Pin1-catalyzed conformational regulation can control a spectrum of activities of many key regulators in diverse cellular processes such as cell growth, genotoxic and other stress responses, immune response, germ cell development, neuronal differentiation and survival. Pin1 has emerged as a novel molecular timer that modulates its multiple targets at various steps of a given cellular process to synergistically control the amplitude and duration of a cellular response or process. Importantly, Pin1 is tightly regulated by multiple levels and its deregulation has an important role in a growing number of pathological conditions, including cancer, Alzheimer's disease, aging, asthma and microbial infection, providing a potentially new therapeutic option. The goal of this screen is to find small-molecule inhibitors of Pin1 using a fluorescence polarization competition assay. A HiFluor-488-labeled peptide binds to the active site of Pin1 and can be displaced by compounds. Compounds were screened as a concentration-titration series that ranged from 57 uM to 0.7 nM. This is the hit validation to test the hits identified in the primary screen. NIH Molecular Libraries Probe Production Network [MLPCN] NIH Chemical Genomics Center [NCGC] MLPCN Grant: R03 DA031663 PI Name: Dr. Kun Ping Lu, Beth Israel Deaconess Medical Center
Pin1 (0.6 uM) was dispensed into black, solid 1536-well plates at 2 uL/well in 10 mM HEPES (pH 7.5), 10 mM NaCl, 0.01% Tween20, 1 mM DTT, and 1% glycerol. Then, 23 nL of compounds or DMSO were delivered to each well using a pin tool. Two uL of Pin1-1b-HiFluor488 peptide (10 mM HEPES (pH 7.5), 10 mM NaCl, 0.01% Tween20, 1 mM DTT, and 1% glycerol, 0.02 uM Pin1-1b-HiFluor488) was then dispensed, and plates were incubated at room temperature for 10 min. The plates were measured on a ViewLux plate reader for fluorescence polarization signal using a 480/20 nM nm excitation filter and 540/25 nM nm S and P emission filters with a 20 second exposure. The %Activity was determined from the corrected fluorescence polarization values. Unlabeled Pin1-1c peptide was used as a control (3.5 mM two-fold serial; 20 uM final concentration) along with a 1x (0.3 uM) and 0x (no-enzyme) Pin1 enzyme control to normalize %Activity of identified inhibitors; 0x enzyme values corresponded to 100%Activity (full inhibition), while 1x Pin1 enzyme values were used to normalize 0%Activity (no inhibition). Concentration-response curves were fitted to the signals arising from the resulting fluorescence polarization. The concentration-effect curves were then classified based on curve quality (r2), response magnitude and degree of measured activity, and compounds were subsequently categorized based on their curve class. […] Keywords: Peptidyl prolyl isomerase, Pin1, fluorescence polarization, MLSMR, MLPCN, NIH Roadmap, qHTS, NCGC

Row | Compound | Potency
1 | COc1cccc2c1C(=O)c1c(O)c3c(c(O)c1C2=O)C[C@@](O)(C(C)=O)C[C@@H]3O[C@H]1C[C@H](N)[C@H](O)[C@H](C)O1 | inconclusive: 8.49 µM [inhibitor, partial curve]
2 | Nc1ccc2cccc(O)c2c1 | inconclusive: 23.9 µM [inhibitor, single point]
3 | O=S(=O)(Nc1cc(Sc2ncn[nH]2)c(O)c2ccccc12)c1ccccc1 | inactive
4 | COc1ccc(S(=O)(=O)Nc2cc(Sc3ncn[nH]3)c(O)c3ccccc23)cc1 | inactive
5 | CN(C)c1ccc2cc(S(=O)(=O)O)cc(O)c2c1 | inconclusive: 21.3 µM [inhibitor, single point]
